Data as given in the supplement of paper PMC6411743.
± gives the standard deviation of the averaged measurements. The list shows a part of the results.

Protein sequences, listed by entry. Tags and fused reporters are not part of them. Lines headed by an entry give the natural chain unless they say otherwise; changes in a name come on top.
UniProt P42285: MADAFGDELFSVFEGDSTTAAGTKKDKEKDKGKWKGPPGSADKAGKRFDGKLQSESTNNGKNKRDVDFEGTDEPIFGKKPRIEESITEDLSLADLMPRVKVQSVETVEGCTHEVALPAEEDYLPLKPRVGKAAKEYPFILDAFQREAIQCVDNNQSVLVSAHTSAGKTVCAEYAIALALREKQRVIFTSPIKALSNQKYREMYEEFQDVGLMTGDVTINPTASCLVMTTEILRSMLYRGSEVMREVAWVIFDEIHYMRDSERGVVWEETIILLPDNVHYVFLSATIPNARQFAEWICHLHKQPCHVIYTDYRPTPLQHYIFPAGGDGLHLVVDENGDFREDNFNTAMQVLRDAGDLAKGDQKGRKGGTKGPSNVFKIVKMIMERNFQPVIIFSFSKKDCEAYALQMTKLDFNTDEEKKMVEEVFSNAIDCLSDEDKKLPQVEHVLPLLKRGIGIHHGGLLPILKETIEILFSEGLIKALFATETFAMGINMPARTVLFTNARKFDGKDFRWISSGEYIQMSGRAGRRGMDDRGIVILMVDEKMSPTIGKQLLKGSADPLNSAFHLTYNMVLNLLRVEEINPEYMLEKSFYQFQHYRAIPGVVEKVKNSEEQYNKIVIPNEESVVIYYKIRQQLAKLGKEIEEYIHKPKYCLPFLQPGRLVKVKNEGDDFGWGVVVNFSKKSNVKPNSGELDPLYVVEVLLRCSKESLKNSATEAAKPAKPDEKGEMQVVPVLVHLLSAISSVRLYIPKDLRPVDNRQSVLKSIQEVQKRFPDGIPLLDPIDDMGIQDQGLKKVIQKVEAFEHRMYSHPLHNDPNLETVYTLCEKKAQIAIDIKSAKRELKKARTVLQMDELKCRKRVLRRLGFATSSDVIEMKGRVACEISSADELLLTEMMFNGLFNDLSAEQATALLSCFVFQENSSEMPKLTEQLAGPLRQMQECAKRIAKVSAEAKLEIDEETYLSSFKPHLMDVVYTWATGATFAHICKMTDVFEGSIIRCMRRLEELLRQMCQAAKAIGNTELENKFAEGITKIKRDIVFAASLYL
UniProt P49773: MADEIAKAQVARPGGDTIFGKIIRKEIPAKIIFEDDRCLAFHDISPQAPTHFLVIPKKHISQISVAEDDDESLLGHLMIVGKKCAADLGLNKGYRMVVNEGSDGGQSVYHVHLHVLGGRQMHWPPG
UniProt P35813: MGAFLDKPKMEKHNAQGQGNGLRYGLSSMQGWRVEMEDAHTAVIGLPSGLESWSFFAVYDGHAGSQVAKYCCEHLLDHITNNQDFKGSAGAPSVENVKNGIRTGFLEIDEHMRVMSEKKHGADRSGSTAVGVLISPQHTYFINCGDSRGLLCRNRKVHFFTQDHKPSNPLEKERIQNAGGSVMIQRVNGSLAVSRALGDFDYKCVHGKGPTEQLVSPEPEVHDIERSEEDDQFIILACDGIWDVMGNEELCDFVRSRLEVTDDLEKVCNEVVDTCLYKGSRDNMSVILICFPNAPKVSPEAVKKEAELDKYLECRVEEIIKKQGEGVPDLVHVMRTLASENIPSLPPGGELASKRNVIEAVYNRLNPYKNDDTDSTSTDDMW
UniProt P43155: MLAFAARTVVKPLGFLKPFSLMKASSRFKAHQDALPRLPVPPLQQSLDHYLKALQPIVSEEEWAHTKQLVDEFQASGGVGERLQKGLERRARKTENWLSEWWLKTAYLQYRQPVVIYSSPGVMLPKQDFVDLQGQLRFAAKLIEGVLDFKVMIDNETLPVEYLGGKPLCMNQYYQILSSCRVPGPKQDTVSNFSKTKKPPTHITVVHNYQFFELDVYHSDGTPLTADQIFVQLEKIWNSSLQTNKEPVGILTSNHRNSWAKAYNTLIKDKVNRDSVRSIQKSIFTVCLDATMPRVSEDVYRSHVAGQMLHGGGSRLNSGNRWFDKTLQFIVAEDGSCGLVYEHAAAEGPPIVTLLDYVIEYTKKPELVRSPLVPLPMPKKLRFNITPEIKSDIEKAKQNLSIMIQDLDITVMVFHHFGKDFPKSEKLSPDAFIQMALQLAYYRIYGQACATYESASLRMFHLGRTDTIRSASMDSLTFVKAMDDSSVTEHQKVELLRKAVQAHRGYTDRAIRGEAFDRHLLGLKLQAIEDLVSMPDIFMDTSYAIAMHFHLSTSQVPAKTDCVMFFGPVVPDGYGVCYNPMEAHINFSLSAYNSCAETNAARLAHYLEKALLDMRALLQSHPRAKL
UniProt P49792, whole entry: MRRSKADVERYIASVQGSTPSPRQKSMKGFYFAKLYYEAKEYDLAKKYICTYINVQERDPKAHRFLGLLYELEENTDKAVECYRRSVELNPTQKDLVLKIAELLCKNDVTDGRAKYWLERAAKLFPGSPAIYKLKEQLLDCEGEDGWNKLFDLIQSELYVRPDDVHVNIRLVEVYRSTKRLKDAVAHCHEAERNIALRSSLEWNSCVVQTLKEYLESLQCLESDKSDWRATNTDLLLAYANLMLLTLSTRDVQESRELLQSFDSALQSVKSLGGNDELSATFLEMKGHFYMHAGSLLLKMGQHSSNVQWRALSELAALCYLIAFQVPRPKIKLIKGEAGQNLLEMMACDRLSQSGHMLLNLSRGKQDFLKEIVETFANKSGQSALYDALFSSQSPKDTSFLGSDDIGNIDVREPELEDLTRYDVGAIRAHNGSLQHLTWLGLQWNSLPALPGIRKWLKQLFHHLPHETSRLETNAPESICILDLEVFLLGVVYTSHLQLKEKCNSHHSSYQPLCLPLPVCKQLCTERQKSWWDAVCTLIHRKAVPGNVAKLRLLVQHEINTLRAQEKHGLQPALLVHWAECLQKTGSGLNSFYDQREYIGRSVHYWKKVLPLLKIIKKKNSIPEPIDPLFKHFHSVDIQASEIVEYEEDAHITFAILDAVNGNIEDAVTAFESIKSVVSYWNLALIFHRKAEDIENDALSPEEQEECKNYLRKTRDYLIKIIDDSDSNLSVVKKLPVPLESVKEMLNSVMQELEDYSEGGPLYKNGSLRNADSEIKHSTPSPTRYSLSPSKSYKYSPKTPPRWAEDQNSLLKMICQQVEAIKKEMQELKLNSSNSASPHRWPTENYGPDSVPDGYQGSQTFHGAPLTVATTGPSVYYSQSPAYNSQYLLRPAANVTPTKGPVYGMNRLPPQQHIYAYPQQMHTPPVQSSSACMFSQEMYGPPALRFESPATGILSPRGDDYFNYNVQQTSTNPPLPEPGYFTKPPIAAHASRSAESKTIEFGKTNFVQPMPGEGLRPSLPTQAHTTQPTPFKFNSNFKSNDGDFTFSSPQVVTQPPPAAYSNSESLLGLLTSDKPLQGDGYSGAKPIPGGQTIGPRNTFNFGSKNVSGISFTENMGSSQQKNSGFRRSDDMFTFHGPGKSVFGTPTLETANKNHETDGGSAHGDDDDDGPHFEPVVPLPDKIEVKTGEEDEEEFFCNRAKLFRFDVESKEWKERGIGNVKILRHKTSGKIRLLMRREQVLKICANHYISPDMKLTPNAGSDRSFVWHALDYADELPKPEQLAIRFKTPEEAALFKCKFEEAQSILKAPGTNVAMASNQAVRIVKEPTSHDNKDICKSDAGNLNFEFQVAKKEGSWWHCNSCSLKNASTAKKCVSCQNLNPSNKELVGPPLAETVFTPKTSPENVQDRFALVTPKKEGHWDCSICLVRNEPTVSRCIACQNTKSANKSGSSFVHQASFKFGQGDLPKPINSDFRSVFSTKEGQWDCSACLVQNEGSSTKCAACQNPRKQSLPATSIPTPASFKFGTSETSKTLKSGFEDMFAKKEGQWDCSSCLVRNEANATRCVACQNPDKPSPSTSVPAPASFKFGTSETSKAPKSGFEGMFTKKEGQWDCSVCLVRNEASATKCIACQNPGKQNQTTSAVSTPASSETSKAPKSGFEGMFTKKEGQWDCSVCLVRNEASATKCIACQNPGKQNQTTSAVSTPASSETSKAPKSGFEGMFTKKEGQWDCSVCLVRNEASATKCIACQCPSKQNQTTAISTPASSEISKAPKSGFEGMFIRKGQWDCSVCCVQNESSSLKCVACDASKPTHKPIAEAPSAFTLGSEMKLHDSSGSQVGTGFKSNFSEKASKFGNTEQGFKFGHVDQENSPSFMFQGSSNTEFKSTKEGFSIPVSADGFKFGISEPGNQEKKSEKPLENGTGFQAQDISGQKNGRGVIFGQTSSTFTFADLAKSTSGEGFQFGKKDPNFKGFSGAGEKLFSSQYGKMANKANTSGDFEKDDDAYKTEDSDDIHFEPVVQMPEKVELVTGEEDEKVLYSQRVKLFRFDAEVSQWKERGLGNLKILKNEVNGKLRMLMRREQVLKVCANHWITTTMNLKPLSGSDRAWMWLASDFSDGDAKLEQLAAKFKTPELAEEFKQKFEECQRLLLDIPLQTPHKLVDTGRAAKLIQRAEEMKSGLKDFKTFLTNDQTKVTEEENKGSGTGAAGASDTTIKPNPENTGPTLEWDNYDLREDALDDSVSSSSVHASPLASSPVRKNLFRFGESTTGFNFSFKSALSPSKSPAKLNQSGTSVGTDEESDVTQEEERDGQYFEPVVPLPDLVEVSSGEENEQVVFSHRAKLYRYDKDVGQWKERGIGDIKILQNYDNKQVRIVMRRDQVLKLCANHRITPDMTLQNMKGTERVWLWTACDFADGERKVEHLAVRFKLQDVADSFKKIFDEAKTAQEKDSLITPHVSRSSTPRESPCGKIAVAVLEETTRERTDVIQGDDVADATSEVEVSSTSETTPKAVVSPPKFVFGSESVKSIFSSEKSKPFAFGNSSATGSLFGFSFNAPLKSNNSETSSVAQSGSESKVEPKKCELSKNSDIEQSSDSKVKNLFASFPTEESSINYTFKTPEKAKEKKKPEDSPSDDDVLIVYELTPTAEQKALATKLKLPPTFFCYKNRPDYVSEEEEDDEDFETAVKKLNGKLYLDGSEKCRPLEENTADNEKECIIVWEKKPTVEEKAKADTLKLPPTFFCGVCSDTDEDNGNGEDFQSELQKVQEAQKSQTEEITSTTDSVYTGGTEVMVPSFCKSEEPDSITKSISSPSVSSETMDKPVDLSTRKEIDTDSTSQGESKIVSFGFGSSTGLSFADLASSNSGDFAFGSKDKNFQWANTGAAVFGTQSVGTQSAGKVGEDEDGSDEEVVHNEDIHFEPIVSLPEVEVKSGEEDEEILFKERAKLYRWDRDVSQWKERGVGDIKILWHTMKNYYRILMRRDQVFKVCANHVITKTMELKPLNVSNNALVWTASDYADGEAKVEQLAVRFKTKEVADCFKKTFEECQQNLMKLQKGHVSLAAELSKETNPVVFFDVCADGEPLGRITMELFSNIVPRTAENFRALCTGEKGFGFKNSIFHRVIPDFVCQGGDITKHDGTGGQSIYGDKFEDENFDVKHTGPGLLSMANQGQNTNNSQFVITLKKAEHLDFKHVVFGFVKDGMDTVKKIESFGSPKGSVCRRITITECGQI
UniProt P49959: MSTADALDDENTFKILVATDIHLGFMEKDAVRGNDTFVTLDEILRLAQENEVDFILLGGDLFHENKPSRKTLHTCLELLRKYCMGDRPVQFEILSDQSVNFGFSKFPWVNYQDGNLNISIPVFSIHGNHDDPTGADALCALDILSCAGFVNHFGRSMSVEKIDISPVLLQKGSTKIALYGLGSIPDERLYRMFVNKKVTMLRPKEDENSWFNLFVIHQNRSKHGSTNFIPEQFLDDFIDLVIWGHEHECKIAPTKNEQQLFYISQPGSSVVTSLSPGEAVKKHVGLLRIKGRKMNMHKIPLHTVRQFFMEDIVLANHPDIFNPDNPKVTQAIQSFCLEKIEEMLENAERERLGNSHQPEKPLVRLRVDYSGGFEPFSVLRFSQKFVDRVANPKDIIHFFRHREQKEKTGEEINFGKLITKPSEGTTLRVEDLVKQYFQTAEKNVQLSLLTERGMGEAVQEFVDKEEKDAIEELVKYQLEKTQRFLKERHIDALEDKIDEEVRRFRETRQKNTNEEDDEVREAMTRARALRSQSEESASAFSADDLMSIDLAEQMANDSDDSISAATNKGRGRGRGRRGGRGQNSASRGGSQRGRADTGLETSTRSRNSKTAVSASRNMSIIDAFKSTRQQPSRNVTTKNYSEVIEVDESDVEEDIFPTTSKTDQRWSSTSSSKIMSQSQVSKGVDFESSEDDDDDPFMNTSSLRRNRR
UniProt P49840: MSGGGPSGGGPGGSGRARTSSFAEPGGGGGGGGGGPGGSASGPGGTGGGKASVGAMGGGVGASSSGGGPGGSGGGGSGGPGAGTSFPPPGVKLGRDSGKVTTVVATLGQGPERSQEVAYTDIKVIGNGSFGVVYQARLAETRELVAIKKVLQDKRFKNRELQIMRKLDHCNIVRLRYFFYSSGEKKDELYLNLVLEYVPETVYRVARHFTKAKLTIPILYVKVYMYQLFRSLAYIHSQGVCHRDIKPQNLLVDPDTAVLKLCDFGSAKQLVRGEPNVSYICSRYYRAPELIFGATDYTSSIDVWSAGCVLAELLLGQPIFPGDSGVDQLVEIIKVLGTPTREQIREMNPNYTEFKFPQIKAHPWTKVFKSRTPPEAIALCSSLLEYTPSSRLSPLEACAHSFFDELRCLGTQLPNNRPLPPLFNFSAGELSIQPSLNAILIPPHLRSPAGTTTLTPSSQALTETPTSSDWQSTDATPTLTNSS

Compound: Nc1nc2c(ncn2[C@@H]2O[C@H](COP(=O)(O)OP(=O)(O)OP(=O)(O)O)[C@@H](O)[C@H]2O)c(=O)[nH]1 [guanosine triphosphate]
Experiment: NP40-soluble protein abundance relative to vehicle (solubility fold change) (ratio); higher = more soluble protein in presence of GTP
Method in brief: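 Across three independent experiments, values are fold changes against the detergent-processed vehicle for each replicate, based on vsn-normalised intensities. The samples were Jurkat crude lysate treated with eight concentrations (0.1 to 10 mM) for 10 min at room temperature and then 3 min at 37 °C. Lysate was solubilised with 0.8% NP40 and benzonase, ultracentrifuged, and the supernatant analysed by TMT-labelled LC-MS/MS.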

Target | NP40-soluble protein abundance (concentration: 0.1mM) | NP40-soluble protein abundance (concentration: 0.5mM) | NP40-soluble protein abundance (concentration: 1mM) | NP40-soluble protein abundance (concentration: 2mM) | NP40-soluble protein abundance (concentration: 4mM) | NP40-soluble protein abundance (concentration: 6mM) | NP40-soluble protein abundance (concentration: 8mM) | NP40-soluble protein abundance (concentration: 10mM)
UniProt P42285 | 1.09 ± 0.074 | 1.1 ± 0.089 | 1.09 ± 0.11 | 1.14 ± 0.14 | 1.23 ± 0.16 | 1.25 ± 0.15 | 1.24 ± 0.13 | 1.2 ± 0.12
HINT1 (UniProt P49773) | 0.907 ± 0.041 | 0.8807 ± 0.0074 | 0.9122 ± 0.0027 | 0.877 ± 0.031 | 0.848 ± 0.021 | 0.869 ± 0.038 | 0.843 ± 0.076 | 0.86 ± 0.047
UniProt P35813 and related entries | 0.9854 ± 0.0082 | 0.976 ± 0.0069 | 0.964 ± 0.02 | 0.941 ± 0.031 | 0.922 ± 0.042 | 0.909 ± 0.046 | 0.924 ± 0.025 | 0.909 ± 0.025
UniProt P35658 and related entries | 0.992 ± 0.097 | 0.984 ± 0.1 | 1 ± 0.1 | 1 ± 0.1 | 1.01 ± 0.076 | 1.03 ± 0.083 | 1.09 ± 0.094 | 1.13 ± 0.096
UniProt P41229 and related entries | 1.08 ± 0.017 | 1.01 ± 0.03 | 1.05 ± 0.049 | 1.04 ± 0.054 | 1.008 ± 0.006 | 1.04 ± 0.078 | 0.938 ± 0.15 | 0.984 ± 0.074
LRPPRC (UniProt P42704) | 1.01 ± 0.025 | 1.02 ± 0.035 | 0.939 ± 0.017 | 0.933 ± 0.054 | 0.913 ± 0.041 | 0.902 ± 0.042 | 0.865 ± 0.02 | 0.855 ± 0.033
UniProt P43155 and related entries | 1.09 ± 0.042 | 1.06 ± 0.012 | 1.02 ± 0.019 | 0.975 ± 0.032 | 1.03 ± 0.07 | 1 ± 0.047 | 0.995 ± 0.085 | 0.994 ± 0.072
ERP29 (UniProt P30040) | 0.883 ± 0.013 | 0.867 ± 0.028 | 0.93 ± 0.025 | 0.899 ± 0.027 | 0.869 ± 0.035 | 0.882 ± 0.037 | 0.84 ± 0.084 | 0.856 ± 0.041
RDX (UniProt P35241) | 0.909 ± 0.1 | 0.958 ± 0.11 | 0.931 ± 0.11 | 0.88 ± 0.13 | 0.869 ± 0.14 | 0.891 ± 0.12 | 0.921 ± 0.11 | 0.91 ± 0.12
RFC2 (UniProt P35250) | 1.08 ± 0.011 | 1.08 ± 0.049 | 1.11 ± 0.05 | 1.16 ± 0.086 | 1.23 ± 0.075 | 1.2 ± 0.092 | 1.21 ± 0.057 | 1.17 ± 0.042
RANBP2 (UniProt P49792) | 1.02 ± 0.013 | 1.06 ± 0.021 | 1.06 ± 0.024 | 1.08 ± 0.057 | 1.14 ± 0.073 | 1.18 ± 0.091 | 1.25 ± 0.13 | 1.26 ± 0.12
MYH9 (UniProt P35579) | 0.968 ± 0.067 | 1 ± 0.071 | 1.01 ± 0.074 | 0.953 ± 0.076 | 0.974 ± 0.076 | 0.981 ± 0.07 | 1.03 ± 0.11 | 0.991 ± 0.1
UniProt P49959 and related entries | 1.02 ± 0.011 | 1.05 ± 0.041 | 1.01 ± 0.013 | 1 ± 0.037 | 1.01 ± 0.036 | 1.01 ± 0.044 | 1.03 ± 0.052 | 1.02 ± 0.053
MCM7 (UniProt P33993) | 1.01 ± 0.018 | 1.06 ± 0.061 | 0.988 ± 0.071 | 1.01 ± 0.11 | 1 ± 0.13 | 1.02 ± 0.13 | 1 ± 0.081 | 0.962 ± 0.079
UniProt P49840 | 0.981 ± 0.028 | 1.03 ± 0.029 | 0.913 ± 0.022 | 0.939 ± 0.02 | 0.921 ± 0.044 | 0.925 ± 0.021 | 0.875 ± 0.051 | 0.888 ± 0.051

Quoted from the listing:
NP40-soluble protein abundance (concentration: 6mM), UniProt P41229 and related entries reads 1.04 ± 0.078
NP40-soluble protein abundance (concentration: 1mM), UniProt P43155 and related entries reads 1.02 ± 0.019
